According to PubChem BioAssay AID504467 (National Center for Advancing Translational Sciences (NCATS), 2011):
Out of some 330,000 compounds screened, about 7,700 (2.3%) were called active. Inconclusive means that the source gave no clear call. Such entries were picked first, then a sample of the others. The call rests on the fitted dose curve; in most records, active means well fitted inhibition curve with a large enough effect; inconclusive means small, poorly fitted or top-dose-only effect, or effect the other way; inactive means flat fitted curve, though single readings scatter. Potencies beside an inconclusive call are fits to weak or partial responses and may not hold up.

experiment: qHTS screen for small molecules that inhibit ELG1-dependent DNA repair in human embryonic kidney (HEK293T) cells expressing luciferase-tagged ELG1; conditions: HEK293T ELG1-luciferase reporter, luminescence, 16 h, DNA damage induced by 5-fluorouridine; series mostly up to 46.1 µM; further: nearly all actives have a fitted effect of over 55% in size
How it was run: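 Cells (2,000 per well) received 5-fluorouridine plus test compound or DMSO and were incubated 16 hr at 37 °C, 5% CO2. Luciferase activity was read by luminescence 30 min after ONE-Glo addition; signal suppression marked inhibition of damage-induced ELG1 function.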
Potency means the concentration at half of the fitted maximal effect.

SMILES | Potency
COc1ccc2nc3ccccc3nc2c1N | inconclusive: 9.2 µM [activator, partial curve]
Cn1c(CN2CCN(C(=O)c3ccc(F)cc3)CC2)nc2cc([N+](=O)[O-])ccc21 | inconclusive: 20.6 µM [inhibitor, partial curve]
O=C(Nc1ccccc1N1CCN(C(=O)c2ccc(Cl)cc2)CC1)c1cc(Br)ccc1Cl | inactive
CN1CCN(c2ccc(NC(=O)c3ccc4c(c3)OCCO4)cc2)CC1 | inconclusive: 7.3 µM [activator, partial curve]
C[C@H](CO)N1C[C@H](C)[C@@H](CN(C)C(=O)Nc2ccc(C(F)(F)F)cc2)Oc2c(NC(=O)C3CCCCC3)cccc2C1=O | inconclusive: 18.3 µM [inhibitor, partial curve]
COC(=O)c1ccc(CSc2nc3ccccc3s2)o1 | inconclusive: 20.6 µM [activator, partial curve]
COc1ccccc1CN1CCN(Cc2nc(-c3ccccc3)no2)CC1 | inconclusive: 32.6 µM [activator, single point]
CN1C(C(=O)NCc2ccco2)=CC(c2ccc(F)cc2)=NS1(=O)=O | inactive
O=C(Nc1ccc(CN2CCCCC2)cc1)c1cccc(F)c1 | inconclusive: 20.6 µM [activator, partial curve]
Fc1ccccc1NC(=S)N1CCN(c2ccccn2)CC1 | inactive
COc1ccc(C(=O)Nc2cccc(-c3ccc(N4CCOCC4)nn3)c2)cc1OC | inconclusive: 23.1 µM [inhibitor, single point]
O=C(Nc1ccc(S(=O)(=O)N2CCCCC2)cc1)c1cnccn1 | inactive
O=C(O)c1cc(S(=O)(=O)NCCCN2CCCC2=O)ccc1Cl | inconclusive: 18.3 µM [activator, single point]
Cc1occc1C(=O)Nc1nnc(C2CCCCC2)s1 | inconclusive: 16.4 µM [activator, partial curve]
COC(=O)c1ccc(NC(=S)NC2CC3CCC2C3)cc1 (stereo not drawn) | inconclusive: 16.4 µM [activator, single point]
Cc1cccc(C)c1N(CC(=O)NCc1ccco1)C(=O)CNS(=O)(=O)c1ccc(F)cc1 | inconclusive: 0.231 µM [inhibitor, single point]
C(=C\c1ccccc1)/CSc1nc2ncccc2[nH]1 | inconclusive: 16.4 µM [activator, partial curve]
CCCCCCC(O)(c1ccc(OC)cc1)C(CN1CCOCC1)c1ccccc1 (stereo not drawn) | inconclusive: 20.6 µM [inhibitor, single point]
CCOc1ccc(NC(=O)CC2C(=O)N(c3cccc(OC)c3)C(=O)N2CCOC)cc1 (stereo not drawn) | inactive
CCCOc1ccc(C(=O)Nc2ccc(S(=O)(=O)Nc3onc(C)c3C)cc2)cc1 | inconclusive: 25.9 µM [activator, partial curve, poor fit]
Oc1c(/C=N/Nc2cccc3cccnc23)ccc2ccccc12 | inconclusive: 18.4 µM [activator, partial curve]
Nc1ccc2nc(SCC(=O)N3CCOCC3)sc2c1 | inconclusive: 16.4 µM [activator, single point]
CC(Sc1nnc(-c2ccncc2)n1-c1ccc(F)cc1)C(=O)NC1CC1 (stereo not drawn) | inactive

SMILES | Potency
CC(C)(C)c1ccc(/C=C/C(=O)N2CCOCC2)cc1 | inconclusive: 6.51 µM [activator, partial curve]
CCCCCCc1ccc(-c2ncc(N)cn2)cc1 | inconclusive: 10.3 µM [activator, partial curve]
O=C(NCc1cccs1)NC1CCCCC1 | inconclusive: 14.6 µM [activator, partial curve]
O=C(Cc1ccc2c(c1)OCCO2)Nc1ccc(Cl)c(S(=O)(=O)N2CCOCC2)c1 | inconclusive: 23.1 µM [inhibitor, partial curve]
CCCC(=O)n1nc(-c2ccc(Cl)cc2)nc1SC | inconclusive: 14.6 µM [activator, partial curve]
Oc1ccc(Nc2nc(-c3cccnc3)cs2)cc1 | inconclusive: 7.3 µM [activator, partial curve]
CCOC(=O)c1cc(C)n(Cc2cccc(OC)c2OC)c1C | inconclusive: 18.4 µM [inhibitor, single point]
COc1cccc(CNC(=O)CCC2CCCN(C(=O)c3csc(C(C)C)n3)C2)c1 (stereo not drawn) | inconclusive: 16.4 µM [inhibitor, partial curve, poor fit]
CCOC(=O)N1CCc2c(sc(NC(=O)CN3CCOCC3)c2C(=O)Nc2ccccc2)C1 | inconclusive: 20.6 µM [inhibitor, partial curve, poor fit]
COc1ccc(C2=NOC(C(=O)N(C)Cc3ccccc3)C2)cc1 (stereo not drawn) | inactive
CCCc1c(C(=O)OCC)sc(N)c1C#N | inactive
CCc1cccc2c(-c3csc(=NC)n3C)c[nH]c12 | inactive
CCOC(=O)C1CCN(CC(O)COc2ccc(C(C)(C)CC)cc2)CC1 (stereo not drawn) | inactive
C=CCNC(=S)NNC(=O)COc1ccc(Br)cc1 | inconclusive: 13 µM [activator, partial curve, poor fit]
CCn1nc(C)cc1-c1nnc(Sc2ncc([N+](=O)[O-])s2)n1C | inconclusive: 18.3 µM [inhibitor, single point]
CCOC(=O)c1ccc(NC(=O)N2CCCCC2)cc1 | inconclusive: 9.2 µM [activator, partial curve]
COc1cc(/C=C/C(=O)O)cc(S(=O)(=O)N2CCCc3ccccc32)c1OC | inactive
O=C(N/N=C/c1ccc(O)c2ncccc12)c1cccc(Br)c1 | inconclusive: 4.11 µM [inhibitor, single point]
O=C(CCNC(=O)c1ccccc1Cl)Nc1nc(-c2ccc(F)cc2)cs1 | inconclusive: 18.4 µM [inhibitor, single point]
Cc1ccc(NC(=O)CCN2C(=O)NC3(CCCC3)C2=O)cc1 | inactive
COc1ccc2cc(/C=N/O)c(Cl)nc2c1 | inactive
O=C(Nc1nc2ccc([N+](=O)[O-])cc2s1)c1ccc(S(=O)(=O)N2CCCc3ccccc32)cc1 | active: 2.31 µM
NNC(=O)Cn1nc(Cc2ccccc2)n(N)c1=O | inactive

Looked up above.
O=C(Nc1ccc(CN2CCCCC2)cc1)c1cccc(F)c1 | Potency: inconclusive: 20.6 µM [activator, partial curve]
Cn1c(CN2CCN(C(=O)c3ccc(F)cc3)CC2)nc2cc([N+](=O)[O-])ccc21 | Potency: inconclusive: 20.6 µM [inhibitor, partial curve]

Carrying on:

SMILES | Potency
CN(C)CCCNC(=O)c1ccc(/C=N/O)nc1 | inconclusive: 9.2 µM [activator, partial curve]
Cc1ccc(OCc2nnc(SCC(=O)c3ccccc3)n2Cc2ccco2)cc1 | inconclusive: 16.4 µM [inhibitor, partial curve, poor fit]
COc1ccc(OC)c(/C=C/C(=O)OCC(=O)NCc2ccco2)c1 | inconclusive: 29.1 µM [inhibitor, single point]
CN(CC(=O)Nc1ccc2c(c1)OCO2)S(=O)(=O)c1cccs1 | inconclusive: 18.3 µM [activator, partial curve]
CCCCNc1ncnc2sc3c(c12)CCN(CCC)C3 | inconclusive: 20.6 µM [inhibitor, single point]
CCOC(=O)c1c(NC(=O)c2ccn(CC)n2)sc2c1CCCC2 | inconclusive: 25.9 µM [inhibitor, single point]
O=C(CSc1ccccc1)NCc1ccccc1 | inconclusive: 1 µM [activator, single point]
Cc1ccc(NC(=O)Cc2ccccc2Cl)cc1S(=O)(=O)N(C)C | inconclusive: 23.1 µM [inhibitor, partial curve, poor fit]
O=C(CSc1nc2ccccc2c(=O)n1CCCO)Nc1ccc2c(c1)OCCO2 | inconclusive: 29.1 µM [inhibitor, single point]
COC(=O)/C(C#N)=C/c1c(Oc2cc(C)cc(C)c2)nc2c(C)cccn2c1=O | inconclusive: 29.1 µM [inhibitor, single point]
Cc1nnc(SCC(=O)c2ccc(C(C)C)cc2)s1 | inconclusive: 29.1 µM [activator, single point]
COc1ccc(NC(=O)CN(C)Cc2c(F)cccc2Cl)cc1S(=O)(=O)N1CCCCC1 | inconclusive: 29.1 µM [inhibitor, single point]
Cc1c(CC(=O)N2CCN(C(=O)C3COc4ccccc4O3)CC2)c(=O)oc2c(O)c(O)ccc12 (stereo not drawn) | inconclusive: 7.3 µM [inhibitor, partial curve]
CCOC(=O)C1=CC[C@]2(C)c3c(c4ccccc4n3C)C(=O)C1N2C | inactive
c1cc(-c2nnc3sc(C4CCCCC4)nn23)ccn1 | active: 9.2 µM
CC(OC(=O)c1cccnc1Cl)C(=O)Nc1ccc2c(c1)OCO2 (stereo not drawn) | inconclusive: 5.8 µM [inhibitor, single point]
COc1ccc(-c2noc(CCC(=O)NCCCN3CCC(Cc4ccccc4)CC3)n2)cc1 | inconclusive: 14.6 µM [inhibitor, partial curve, poor fit]
O=C(c1cn(-c2ccccc2)nc1-c1cccnc1)N1CCN(S(=O)(=O)c2ccccc2F)CC1 | active: 14.6 µM
C=CCn1cc(C(=O)NCCOC)c(=O)c2cc(S(=O)(=O)N(CC)CC)ccc21 | inconclusive: 13 µM [inhibitor, partial curve, poor fit]
COC(=O)c1c(NC(=O)c2ccccc2)sc(Cc2ccccc2)c1C | inconclusive: 4.61 µM [activator, single point]
CC(=O)c1ccc(OC(C)C(=O)NC2CCCCC2C)cc1 (stereo not drawn) | inconclusive: 29.1 µM [activator, single point]
COc1cccc(/C=C2\SC(=O)N(CC(=O)NCCCn3ccnc3)C2=O)c1 | inconclusive: 14.6 µM [activator, single point]

Grouped by structure, the entries above containing an NH in an aromatic ring (two)
SMILES | Potency
C(=C\c1ccccc1)/CSc1nc2ncccc2[nH]1 | inconclusive: 16.4 µM [activator, partial curve]
CCc1cccc2c(-c3csc(=NC)n3C)c[nH]c12 | inactive
